These are yes or no findings as the source states them, for the method shown. Some binding calls cover weakened binding; strength is not graded here.
Target: Fully glycosylated extracellular domain of FGFR1 IIIc fused to the Fc fragment of human IgG1 (UniProt P11362)
Assay: BLI; competitive BLI; FGFR1‐Fc (30 μg/mL) immobilised on ProtA biosensors, left untreated or incubated with saturating B‐Fc or T‐Fc; then FGF1, galectin‐1 or galectin‐3 (50 μg/mL) with or without B‐Fc or T‐Fc (0.3 μM); PBS; both purified

Chains of the proteins cited; added tags and fusions are not shown. Residues count along the entry.
UniProt P11362, residues 22-376: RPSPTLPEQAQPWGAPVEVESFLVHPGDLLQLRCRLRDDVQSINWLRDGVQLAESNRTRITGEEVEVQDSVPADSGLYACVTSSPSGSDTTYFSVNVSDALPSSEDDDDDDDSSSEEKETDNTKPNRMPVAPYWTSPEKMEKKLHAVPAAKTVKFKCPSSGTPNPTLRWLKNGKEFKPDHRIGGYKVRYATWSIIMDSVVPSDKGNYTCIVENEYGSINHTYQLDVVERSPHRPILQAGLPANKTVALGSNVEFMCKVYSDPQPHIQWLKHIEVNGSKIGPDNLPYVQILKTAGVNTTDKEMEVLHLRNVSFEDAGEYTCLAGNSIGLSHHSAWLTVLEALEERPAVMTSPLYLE
UniProt P09382: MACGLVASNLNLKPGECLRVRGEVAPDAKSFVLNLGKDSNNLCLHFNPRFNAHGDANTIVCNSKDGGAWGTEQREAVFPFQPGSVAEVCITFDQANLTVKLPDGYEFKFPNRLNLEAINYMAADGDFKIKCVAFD

- binding: binds
Substance: Recombinant galectin‐1 (from UniProt P09382 1-135)

Reference: PMC7463352
